In assay [1] the target is MBP-OsASN2 fusion protein (rice) (UniProt Q43011). Nature of the assay: pull-down; resin-bound MBP or MBP-OsASN2 mixed with His-OsPPDKB at 4 °C overnight; elution blotted with anti-His and anti-MBP.
Assay [2] deals with OsASN2-GFP fusion protein (rice) (UniProt Q43011). Nature of the assay: co-IP; GFP or OsASN2-GFP transiently co-transformed with OsPPDKB-MYC into rice protoplasts; GFP-Trap 12 h after transformation; blots with anti-GFP and anti-MYC.

The chains behind the UniProt entries cited, without tags or fusion partners. Where a name states a change or a piece, a line headed by the entry shows the natural chain unless it says otherwise.
UniProt Q43011: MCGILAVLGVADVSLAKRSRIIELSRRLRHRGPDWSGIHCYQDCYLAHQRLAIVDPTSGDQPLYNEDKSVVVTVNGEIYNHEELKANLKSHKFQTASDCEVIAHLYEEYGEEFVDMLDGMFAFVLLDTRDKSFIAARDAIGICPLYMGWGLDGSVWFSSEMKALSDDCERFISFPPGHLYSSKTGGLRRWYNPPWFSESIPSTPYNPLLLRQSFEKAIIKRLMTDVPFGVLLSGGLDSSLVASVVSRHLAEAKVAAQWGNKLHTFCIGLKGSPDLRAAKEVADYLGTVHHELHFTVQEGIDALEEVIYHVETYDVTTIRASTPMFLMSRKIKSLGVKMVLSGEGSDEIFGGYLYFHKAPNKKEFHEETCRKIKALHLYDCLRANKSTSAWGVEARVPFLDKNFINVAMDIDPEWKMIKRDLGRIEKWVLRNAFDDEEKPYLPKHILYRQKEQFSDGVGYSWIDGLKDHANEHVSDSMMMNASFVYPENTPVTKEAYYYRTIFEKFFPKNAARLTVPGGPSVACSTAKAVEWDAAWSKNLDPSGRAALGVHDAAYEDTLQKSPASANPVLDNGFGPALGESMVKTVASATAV

These are yes or no findings as the source states them, for the method shown. In cells and extracts the contact can be indirect. A result given as binding can be weak or reduced; the word gives no strength. Tags and fused reporters may be left off the sequences shown.

B1: His-OsPPDKB fusion protein (enzyme, UniProt Q6AVA8 72-947)
chain: TTKKRVFHFGKGKSEGNKAMKDLLGGKGANLAEMASIGLSVPPGFTVSTEACQQYQAAGKTLPAGLWEEIVEGLQWVEEYMAARLGDPARPLLLSVRSGAAVSMPGMMDTVLNLGLNDEVAAGLAAKSGDRFAYDSYRRFLDMFGNVVMDIPHALFEEKLEAMKAVKGLHNDTDLTATDLKELVAQYKDVYVEAKGEPFPSDPKKQLQLAVLAVFNSWDSPRAIKYRSINKITGLKGTAVNVQTMVFGNMGNTSGTGVLFTRNPSTGEKKLYGEFLVNAQGEDVVAGIRTPEDLDAMRDHMPEPYEELVENCKILESHYKEMMDIEFTVQENRLWMLQCRTGKRTGKGAVKIAVDMVNEGLVERRTALKMVEPGHLDQLLHPQFENPSGYKDKVIATGLPASPGAAVGQIVFTAEDAEAWHAQGKDVILVRTETSPEDVGGMHAAVGILTARGGMTSHAAVVARGWGKCCVSGCSSVRVNDASKIVVIEDKALHEGEWLSLNGSTGEVIIGKQPLCPPALSGDLETFMSWVDEVRKLKVMANADTPEDATTARQNGAEGIGLCRTEHMFFASDERIKAVRQMIMASSLELRQKALDRLLPYQRSDFEGIFRAMDGLPVTIRLLDPPLHEFLPEGHVEDMVRELCSETGAAQDDVLARVEKLSEVNPMLGFRGCRLGISYPELTEMQARAIFEAAITMTNQGIQVFPEIMVPLVGTPQELGHQVDVIRQIANKVFTDMGKTIGYKVGTMIEIPRAALVADEIAEQAEFFSFGTNDLTQMTFGYSRDDVGKFLPIYLSQGILQHDPFEVLDQRGVGELVKLATERGRKARPNLKVGICGEHGGEPLSVAFFAKAGLDYVSCSPFRVPIARLAAAQVLL
As for B1, the binding result in assay [1] is given as “binds”.

B2: OsPPDKB-MYC (enzyme, UniProt Q6AVA8 72-947)
chain: TTKKRVFHFGKGKSEGNKAMKDLLGGKGANLAEMASIGLSVPPGFTVSTEACQQYQAAGKTLPAGLWEEIVEGLQWVEEYMAARLGDPARPLLLSVRSGAAVSMPGMMDTVLNLGLNDEVAAGLAAKSGDRFAYDSYRRFLDMFGNVVMDIPHALFEEKLEAMKAVKGLHNDTDLTATDLKELVAQYKDVYVEAKGEPFPSDPKKQLQLAVLAVFNSWDSPRAIKYRSINKITGLKGTAVNVQTMVFGNMGNTSGTGVLFTRNPSTGEKKLYGEFLVNAQGEDVVAGIRTPEDLDAMRDHMPEPYEELVENCKILESHYKEMMDIEFTVQENRLWMLQCRTGKRTGKGAVKIAVDMVNEGLVERRTALKMVEPGHLDQLLHPQFENPSGYKDKVIATGLPASPGAAVGQIVFTAEDAEAWHAQGKDVILVRTETSPEDVGGMHAAVGILTARGGMTSHAAVVARGWGKCCVSGCSSVRVNDASKIVVIEDKALHEGEWLSLNGSTGEVIIGKQPLCPPALSGDLETFMSWVDEVRKLKVMANADTPEDATTARQNGAEGIGLCRTEHMFFASDERIKAVRQMIMASSLELRQKALDRLLPYQRSDFEGIFRAMDGLPVTIRLLDPPLHEFLPEGHVEDMVRELCSETGAAQDDVLARVEKLSEVNPMLGFRGCRLGISYPELTEMQARAIFEAAITMTNQGIQVFPEIMVPLVGTPQELGHQVDVIRQIANKVFTDMGKTIGYKVGTMIEIPRAALVADEIAEQAEFFSFGTNDLTQMTFGYSRDDVGKFLPIYLSQGILQHDPFEVLDQRGVGELVKLATERGRKARPNLKVGICGEHGGEPLSVAFFAKAGLDYVSCSPFRVPIARLAAAQVLL
On to B2, for which the binding result in assay [2] is on record as “binds”.

For the origin of these results see article PMC12251889.
